The values below come from paper PMC4410478, “Larvicidal activity and possible mode of action of four flavonoids and two fatty acids identified in Millettia pinnata seed toward three mosquito species” (Parasites & Vectors, 2015).

The first data set deals with third instar Aedes aegypti larvae. Nature of the data set: direct-contact mortality bioassay. The settings on record: probit slope, 24 h exposure.
Take `CCCCCCCCCCCCCCCCCCCC(=O)O` [Arachidic acid, arachidic acid]: the “Slope ± SE” value is 3.8 ± 0.45.

In the case of `CCCCCCCCCCCCCCCCCCCCCC(=O)O` [Behenic acid, behenic acid], the “Slope ± SE” value was determined as 6.1 ± 1.20.

Consider `CCCCCCCC/C=C/CCCCCCCC(=O)O` [Elaidic acid, elaidic acid], for which the “Slope ± SE” value was 3.8 ± 0.44.

For `COP(=S)(OC)Oc1ccc(SC)c(C)c1` [Fenthion, fenthion, reference compound], the “Slope ± SE” value is 3.6 ± 0.43.

In the case of `COc1c(-c2ccccc2)oc2c3c(ccc2c1=O)OC(C)(C)C=C3` [Karanjachromene (2), karanjachromene], the “Slope ± SE” value is on record as 2.9 ± 0.40.

As for `COc1c(-c2ccccc2)oc2c(ccc3occc32)c1=O` [Karanjin (1), karanjin], the “Slope ± SE” value is reported as 2.2 ± 0.26.

Consider `CCCCC/C=C\C/C=C\CCCCCCCC(=O)O` [Linoleic acid, linoleic acid], for which the “Slope ± SE” value worked out at 2.1 ± 0.29.

As to `CC/C=C\C/C=C\C/C=C\CCCCCCCC(=O)O` [Linolenic acid, linolenic acid], the “Slope ± SE” value amounted to 2.4 ± 0.31.

As for `CCCCCCCC/C=C\CCCCCCCC(=O)O` [Oleic acid (3), oleic acid], the “Slope ± SE” value is reported as 3.0 ± 0.40.

Turning to `CCCCCCCCCCCCCCCC(=O)O` [Palmitic acid (4), palmitic acid], the “Slope ± SE” value worked out at 4.6 ± 0.62.

In the case of `O=c1c2c(oc3c1ccc1occc13)COc1ccccc1-2` [Pongarotene (6), pongarotene], the “Slope ± SE” value was found to be 3.6 ± 0.44.

With `COP(=S)(OC)Oc1ccc(Sc2ccc(OP(=S)(OC)OC)cc2)cc1` [Temephos, temephos, reference compound], the “Slope ± SE” value is recorded as 2.6 ± 0.32.

As to pongamol [Pongamol (5)], the “Slope ± SE” value came to 2.7 ± 0.34.

Another data set concerns third instar larvae from wild Aedes albopictus. Nature of the data set: direct-contact mortality bioassay. Conditions: probit slope, 24 h exposure.
Turning to `CCCCCCCCCCCCCCCCCCCC(=O)O` [Arachidic acid, arachidic acid], the “Slope ± SE” value was found to be 3.5 ± 0.38.

Consider `CCCCCCCCCCCCCCCCCCCCCC(=O)O` [Behenic acid, behenic acid], for which the “Slope ± SE” value came out at 4.9 ± 0.59.

For the compound `CCCCCCCC/C=C/CCCCCCCC(=O)O` [Elaidic acid, elaidic acid], the “Slope ± SE” value worked out at 3.1 ± 0.43.

`COP(=S)(OC)Oc1ccc(SC)c(C)c1` [Fenthion, fenthion, reference compound]: the “Slope ± SE” value is 1.5 ± 0.29.

Consider `COc1c(-c2ccccc2)oc2c3c(ccc2c1=O)OC(C)(C)C=C3` [Karanjachromene (2), karanjachromene], for which the “Slope ± SE” value was found to be 2.7 ± 0.41.

Take `COc1c(-c2ccccc2)oc2c(ccc3occc32)c1=O` [Karanjin (1), karanjin]: the “Slope ± SE” value turned out to be 3.1 ± 0.41.

Turning to `CCCCC/C=C\C/C=C\CCCCCCCC(=O)O` [Linoleic acid, linoleic acid], the “Slope ± SE” value is listed as 3.0 ± 0.78.

`CC/C=C\C/C=C\C/C=C\CCCCCCCC(=O)O` [Linolenic acid, linolenic acid]: the “Slope ± SE” value was determined as 2.9 ± 0.78.

Regarding `CCCCCCCC/C=C\CCCCCCCC(=O)O` [Oleic acid (3), oleic acid], the “Slope ± SE” value was determined as 3.2 ± 0.41.

Turning to `CCCCCCCCCCCCCCCC(=O)O` [Palmitic acid (4), palmitic acid], the “Slope ± SE” value amounted to 4.5 ± 0.63.

As to `O=c1c2c(oc3c1ccc1occc13)COc1ccccc1-2` [Pongarotene (6), pongarotene], the “Slope ± SE” value was found to be 3.1 ± 0.43.

In the case of `COP(=S)(OC)Oc1ccc(Sc2ccc(OP(=S)(OC)OC)cc2)cc1` [Temephos, temephos, reference compound], the “Slope ± SE” value came out at 4.1 ± 0.46.

On to pongamol [Pongamol (5)], for which the “Slope ± SE” value is 2.8 ± 0.33.

A further data set deals with third instar Culex pipiens pallens larvae. Nature of the data set: direct-contact mortality bioassay. The settings on record: probit slope, 24 h exposure.
Take `CCCCCCCCCCCCCCCCCCCC(=O)O` [Arachidic acid, arachidic acid]: the “Slope ± SE” value is 3.9 ± 0.45.

For the compound `CCCCCCCCCCCCCCCCCCCCCC(=O)O` [Behenic acid, behenic acid], the “Slope ± SE” value is recorded as 6.5 ± 0.84.

As to `CCCCCCCC/C=C/CCCCCCCC(=O)O` [Elaidic acid, elaidic acid], the “Slope ± SE” value worked out at 3.9 ± 0.42.

Regarding `COP(=S)(OC)Oc1ccc(SC)c(C)c1` [Fenthion, fenthion, reference compound], the “Slope ± SE” value is given as 3.5 ± 0.44.

For the compound `COc1c(-c2ccccc2)oc2c3c(ccc2c1=O)OC(C)(C)C=C3` [Karanjachromene (2), karanjachromene], the “Slope ± SE” value turned out to be 3.3 ± 0.42.

Take `COc1c(-c2ccccc2)oc2c(ccc3occc32)c1=O` [Karanjin (1), karanjin]: the “Slope ± SE” value is 2.2 ± 0.30.

As for `CCCCC/C=C\C/C=C\CCCCCCCC(=O)O` [Linoleic acid, linoleic acid], the “Slope ± SE” value was 2.2 ± 0.29.

Consider `CC/C=C\C/C=C\C/C=C\CCCCCCCC(=O)O` [Linolenic acid, linolenic acid], for which the “Slope ± SE” value is 2.3 ± 0.30.

In the case of `CCCCCCCC/C=C\CCCCCCCC(=O)O` [Oleic acid (3), oleic acid], the “Slope ± SE” value was found to be 3.2 ± 0.41.

In the case of `CCCCCCCCCCCCCCCC(=O)O` [Palmitic acid (4), palmitic acid], the “Slope ± SE” value was 3.6 ± 0.48.

Take `O=c1c2c(oc3c1ccc1occc13)COc1ccccc1-2` [Pongarotene (6), pongarotene]: the “Slope ± SE” value turned out to be 2.6 ± 0.34.

Regarding `COP(=S)(OC)Oc1ccc(Sc2ccc(OP(=S)(OC)OC)cc2)cc1` [Temephos, temephos, reference compound], the “Slope ± SE” value is 2.0 ± 0.30.

pongamol [Pongamol (5)]: the “Slope ± SE” value was determined as 2.6 ± 0.33.
